These are literature values, as cited in patent US20010046961A1, “Method for the treatment of solid tumors by albumin microparticles incorporating paclitaxel” (ACS DOBFAR S.p.A., priority 2000, published 2001).

As to `CC(=O)O[C@H]1C(=O)[C@@]2(C)[C@H]([C@H](OC(=O)c3ccccc3)[C@]3(O)C[C@H](OC(=O)[C@H](O)[C@@H](NC(=O)c4ccccc4)c4ccccc4)C(C)=C1C3(C)C)[C@]1(OC(C)=O)CO[C@@H]1C[C@@H]2O` [Paclitaxel], the solubility in water entry is given as “insoluble in water”.
